Reference: US4864017 (dated 1989)

Test: general procedure: solution-phase peptide synthesis; diethylphosphoryl cyanide, triethylamine

Row | Substance | step yield (late stage modification step) | step yield (coupling step)
1 | [5S-[[(N-tert-Butyloxycarbonyl-L-phenylalanyl)-L-histidyl]amino]-3R,4R-dihydroxy-2R-isopropyl-7-methyloctanoyl]-L-isoleucyl-2pyridylmethylamide | 76% | 
2 | [5S-[[(N-tert-Butyloxycarbonyl-L-phenylalanyl)-N^im -tosyl-L-histidyl]amino]-3R,4R-dihydroxy-2R-isopropyl-7-methyl-octanoyl]-L-isoleucyl-2-pyridylmethylamide |  | 60%
